The source of these data is article PMC4625724.

Amino acid sequences for entries named in this document (tags omitted).
UniProt P06428: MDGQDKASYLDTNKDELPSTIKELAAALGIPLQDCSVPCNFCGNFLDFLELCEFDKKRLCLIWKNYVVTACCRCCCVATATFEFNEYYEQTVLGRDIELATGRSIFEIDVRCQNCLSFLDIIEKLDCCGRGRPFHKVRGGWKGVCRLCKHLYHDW
UniProt Q09472: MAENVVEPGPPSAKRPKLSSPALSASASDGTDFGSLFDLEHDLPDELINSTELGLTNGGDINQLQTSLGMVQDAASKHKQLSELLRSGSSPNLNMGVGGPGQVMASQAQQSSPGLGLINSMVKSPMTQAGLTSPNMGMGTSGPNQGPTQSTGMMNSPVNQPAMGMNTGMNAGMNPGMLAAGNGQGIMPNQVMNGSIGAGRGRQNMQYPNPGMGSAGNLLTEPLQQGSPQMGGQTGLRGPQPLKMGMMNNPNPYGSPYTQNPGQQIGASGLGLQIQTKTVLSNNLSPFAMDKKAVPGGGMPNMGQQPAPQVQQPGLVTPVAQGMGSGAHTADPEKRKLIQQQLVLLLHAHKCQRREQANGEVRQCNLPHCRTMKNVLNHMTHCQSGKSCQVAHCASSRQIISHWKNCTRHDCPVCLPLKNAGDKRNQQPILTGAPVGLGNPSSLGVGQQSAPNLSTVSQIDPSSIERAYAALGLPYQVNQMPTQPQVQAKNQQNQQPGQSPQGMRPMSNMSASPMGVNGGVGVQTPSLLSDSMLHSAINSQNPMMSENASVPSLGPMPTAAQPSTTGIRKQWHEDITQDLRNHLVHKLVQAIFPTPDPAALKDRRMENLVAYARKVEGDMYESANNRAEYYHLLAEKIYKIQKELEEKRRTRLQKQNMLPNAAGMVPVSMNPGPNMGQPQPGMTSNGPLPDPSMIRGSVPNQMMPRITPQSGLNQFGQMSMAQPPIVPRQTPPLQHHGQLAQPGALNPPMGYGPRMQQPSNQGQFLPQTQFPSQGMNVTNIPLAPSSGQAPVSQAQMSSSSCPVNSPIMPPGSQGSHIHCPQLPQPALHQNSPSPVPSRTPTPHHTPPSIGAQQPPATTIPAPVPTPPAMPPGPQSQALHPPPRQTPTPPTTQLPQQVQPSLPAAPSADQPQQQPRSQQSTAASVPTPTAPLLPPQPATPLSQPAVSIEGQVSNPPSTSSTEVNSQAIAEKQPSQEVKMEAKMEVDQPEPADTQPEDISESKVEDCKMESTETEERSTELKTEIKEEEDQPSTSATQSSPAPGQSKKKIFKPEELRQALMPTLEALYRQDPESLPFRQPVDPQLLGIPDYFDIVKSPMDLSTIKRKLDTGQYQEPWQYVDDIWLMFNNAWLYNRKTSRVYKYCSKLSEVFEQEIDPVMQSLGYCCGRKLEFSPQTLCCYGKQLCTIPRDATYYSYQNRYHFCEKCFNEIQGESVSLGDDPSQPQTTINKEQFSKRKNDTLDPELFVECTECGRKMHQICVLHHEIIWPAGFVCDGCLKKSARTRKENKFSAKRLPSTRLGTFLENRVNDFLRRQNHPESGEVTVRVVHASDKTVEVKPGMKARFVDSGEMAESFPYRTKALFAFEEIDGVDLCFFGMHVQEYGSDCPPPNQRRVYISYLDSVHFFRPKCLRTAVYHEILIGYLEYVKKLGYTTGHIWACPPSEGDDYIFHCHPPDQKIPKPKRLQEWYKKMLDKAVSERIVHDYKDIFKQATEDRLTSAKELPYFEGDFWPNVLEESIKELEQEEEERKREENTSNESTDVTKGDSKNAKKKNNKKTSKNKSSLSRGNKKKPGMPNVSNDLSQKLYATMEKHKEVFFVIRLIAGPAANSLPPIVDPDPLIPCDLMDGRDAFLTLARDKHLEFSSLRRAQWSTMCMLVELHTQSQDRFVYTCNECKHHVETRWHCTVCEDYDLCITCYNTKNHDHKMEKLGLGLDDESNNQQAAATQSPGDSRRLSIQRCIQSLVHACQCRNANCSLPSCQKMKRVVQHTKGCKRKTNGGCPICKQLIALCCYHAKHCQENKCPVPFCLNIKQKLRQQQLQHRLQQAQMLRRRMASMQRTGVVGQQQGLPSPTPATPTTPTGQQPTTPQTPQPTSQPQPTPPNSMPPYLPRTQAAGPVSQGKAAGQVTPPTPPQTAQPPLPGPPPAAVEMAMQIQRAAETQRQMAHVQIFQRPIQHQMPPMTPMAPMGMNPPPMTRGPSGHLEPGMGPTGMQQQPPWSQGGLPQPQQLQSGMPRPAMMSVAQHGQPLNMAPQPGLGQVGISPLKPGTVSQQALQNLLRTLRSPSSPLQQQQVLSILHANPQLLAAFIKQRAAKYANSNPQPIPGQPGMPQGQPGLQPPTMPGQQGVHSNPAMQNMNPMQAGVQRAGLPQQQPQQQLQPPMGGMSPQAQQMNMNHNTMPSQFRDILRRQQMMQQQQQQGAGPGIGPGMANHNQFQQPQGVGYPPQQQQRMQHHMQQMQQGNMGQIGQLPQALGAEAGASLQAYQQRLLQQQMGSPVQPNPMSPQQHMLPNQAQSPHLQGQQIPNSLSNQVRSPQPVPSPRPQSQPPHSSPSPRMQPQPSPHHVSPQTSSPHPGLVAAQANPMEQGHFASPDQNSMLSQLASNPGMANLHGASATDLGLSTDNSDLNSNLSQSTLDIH
UniProt P84022: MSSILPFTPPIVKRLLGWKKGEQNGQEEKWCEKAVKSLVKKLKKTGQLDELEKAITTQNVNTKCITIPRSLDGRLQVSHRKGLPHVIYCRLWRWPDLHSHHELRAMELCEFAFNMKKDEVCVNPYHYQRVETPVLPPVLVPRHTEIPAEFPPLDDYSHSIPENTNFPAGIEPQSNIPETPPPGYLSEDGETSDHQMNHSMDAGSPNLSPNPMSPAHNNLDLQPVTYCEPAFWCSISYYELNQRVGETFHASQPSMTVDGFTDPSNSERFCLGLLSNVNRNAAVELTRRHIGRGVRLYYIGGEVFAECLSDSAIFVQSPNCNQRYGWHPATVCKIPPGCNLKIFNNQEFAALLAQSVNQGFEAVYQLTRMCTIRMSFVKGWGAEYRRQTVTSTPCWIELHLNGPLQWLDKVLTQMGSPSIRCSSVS
UniProt Q92585: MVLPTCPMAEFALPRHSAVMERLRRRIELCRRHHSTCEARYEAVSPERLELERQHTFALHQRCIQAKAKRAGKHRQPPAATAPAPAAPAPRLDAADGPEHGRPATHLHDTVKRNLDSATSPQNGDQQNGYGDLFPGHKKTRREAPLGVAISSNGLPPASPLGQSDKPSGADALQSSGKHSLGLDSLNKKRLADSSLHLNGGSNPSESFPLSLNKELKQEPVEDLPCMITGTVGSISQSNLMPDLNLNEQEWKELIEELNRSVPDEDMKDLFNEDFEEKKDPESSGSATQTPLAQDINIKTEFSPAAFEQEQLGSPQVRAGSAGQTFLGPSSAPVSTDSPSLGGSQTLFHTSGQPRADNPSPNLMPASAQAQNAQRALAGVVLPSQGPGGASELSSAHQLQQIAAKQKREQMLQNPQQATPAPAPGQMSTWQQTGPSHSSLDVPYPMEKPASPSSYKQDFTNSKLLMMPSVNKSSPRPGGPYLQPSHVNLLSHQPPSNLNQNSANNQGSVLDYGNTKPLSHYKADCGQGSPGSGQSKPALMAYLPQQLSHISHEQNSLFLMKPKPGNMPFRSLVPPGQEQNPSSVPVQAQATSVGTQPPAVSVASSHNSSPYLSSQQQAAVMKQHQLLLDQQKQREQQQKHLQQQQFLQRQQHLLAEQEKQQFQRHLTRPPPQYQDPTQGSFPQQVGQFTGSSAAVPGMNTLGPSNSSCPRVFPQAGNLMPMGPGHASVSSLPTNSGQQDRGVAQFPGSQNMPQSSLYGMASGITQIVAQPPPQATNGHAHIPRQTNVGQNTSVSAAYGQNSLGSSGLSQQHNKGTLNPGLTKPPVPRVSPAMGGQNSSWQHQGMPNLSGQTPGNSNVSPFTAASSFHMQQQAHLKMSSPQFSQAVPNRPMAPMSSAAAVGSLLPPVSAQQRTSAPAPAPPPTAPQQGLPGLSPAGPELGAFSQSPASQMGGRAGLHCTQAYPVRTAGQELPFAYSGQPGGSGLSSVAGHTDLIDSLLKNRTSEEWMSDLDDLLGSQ

The assay concerns the target Flag-HPV8-E6wt (human papillomavirus 8 (HPV8)) (UniProt P06428). In words: co-IP; extracts of transiently transfected RTS3b cells in 100 mM LSDB buffer (100 mM KCl, 50 mM Tris-HCl, 20 % glycerol, 0.1 % NP-40, 1 mM DTT) incubated with FLAG-M2 agarose 2 h at 4 °C, three washes with LSDB containing different KCl concentrations; Western blot of endogenous p300, MAML1, SMAD3. For orientation: A western blot detects proteins with antibodies after separation by electrophoresis.

Results are given in words; binding and its absence hold for the method and conditions named. In cells and extracts the contact can be indirect. Some binding calls cover weakened binding; strength is not graded here.

Regarding p300 (from UniProt Q09472 1-2414), the binding entry is “binds”.
As to SMAD3 (from UniProt P84022 1-425), the binding result was “binds”.
In the case of MAML1 (from UniProt Q92585 1-1016) it was “binds”.
